# This is one part of the list. For part of these data: At the low end of the ranking the order means little.
# Key:
# Settings in all cases: 10 mM Tris-Cl pH 7.5, 50 mM NaCl, 1 mM DTT, 0.25 mg/ml BSA, 2 mM MgCl2, 0.025% Nonidet P-40, 5% glycerol; 28 nM nucleosome library; 10 min on ice then 30 min …; high values mean tight binding; double strand, one strand shown
# [1] = system: KLF4 + histone octamer; experiment: EMSA with sequencing
# [2] = system: OCT4 + histone octamer; experiment: EMSA with sequencing
# [3] = system: SOX2 + histone octamer; experiment: EMSA with sequencing
# [4] = system: c-MYC + MAX + histone octamer; experiment: EMSA with sequencing
# [5] = system: c-MYC + MAX + histone octamer; experiment: Pioneer-seq (competitive nucleosome EMSA with sequencing)
# [6] = system: SOX2 + histone octamer; experiment: as above
Sequence,binding signal (log2 relative supershift) [1],binding signal (log2 relative supershift) [2],binding signal (log2 relative supershift) [3],binding signal (log2 relative supershift) [4],binding signal (log2 relative supershift) [5],binding signal (log2 relative supershift) [6]
GATGGACCCTATACGCGGCTCTCCTTCTCCCTGTGAACATGGCTTCTGGTGGTGAGAGCCAGTTTGCATTCATTCTTTGATGTGAATGCTCTGATTCAGTAGCTCTCAACTTGTTTTCTGCTACAACACAGATGGCTTTCACATGCCTCACACCCTCACAGGGGGGTATCCAGGGTTATGCAAAATTGAAGCAAGCTACTTGTAATTCCATGCCAGTCGGATAGTGTTCC,1.28,0.846,0.331,0.236,–,–
GATGGACCCTATACGCGGCGCTCTAGCTCCTGTGGCCTCGACCTCTTCACCCCAGCACCGCCTCCAACTAGTCCAGACAAGTCCCAAGTATTTTCAGCCACCTTTATCTGATCAGAAATGTTTGGAATTCCACAGCAGAAGGCAACAGCTCTGGAGGATTTGGGGAAGGGAGCAAATCCCTGCAACACCCTTCTCTCCCCACTGTACAGATGCCAGTCGGATAGTGTTCC,2.57,0.359,0.221,0.47,–,–
GATGGACCCTATACGCGGCACCTCTGTTGCACTCTGCTTGCCCATACAAGCCTGTTTCAGGGGTGGATTATTTCTTTATAATGCAGCTTTGAACCATGTCTGAAATGTGTAAGAAAGACAACCAGATGGGCTGGATAAACTGCTTTTGTCTGAGCTGCAGCCAGACTCTGCTCAGTGGGTGTGGACAGGCTGCCAGCCTCACTGAGAAAGTGCCAGTCGGATAGTGTTCC,2.67,0.364,1.35,1.04,–,–
GATGGACCCTATACGCGGCGTGTGTGTGTTAGGGGTTAGTGAGTGTGCTGGGCAGGTGGGGTGGTGCTTGAGGTTCTCCCTGCCGAGTGTGCACATGGCTGGGCGTGTGTGTGTGTGTGCGTGTGTGTGTGGTGGGAATGACAGTGGATCTGCCTCCAAGTGTGCCCACACAAGTGCCGGGGCTGTGCAGTCCATGCCTGTGTGAGGTGCTGCCAGTCGGATAGTGTTCC,1.43,0.58,0.608,1.49,–,–
GATGGACCCTATACGCGGCTCCCCAGCCGCAGAGGACATGCGGACATGTGTGGGCAGGTCCCTTCTGACCCATGGCAGGTCCCTGTTGATGGTCAGGCTGGGGATCGTGCAGGCCTTTTTGTTATCCCGGGGTCTCCTTCTGAGCTATGCTAACACTGTGCAGTGCCTATAACCAAGAAGAAAAAGGAAAGAAACAGAGGAAACTCAAAGTGCCAGTCGGATAGTGTTCC,1.38,0.0233,0.28,0.755,–,–
GATGGACCCTATACGCGGCCTGTCCTGCCAATGAGAATATGATAAAAAGGTTCTTGAATGCTGCTGTAGTCAGTATACTTGGGGTCATGGAAGGCTGCTGACCTCATACATGGGGACTCTTGCAGAGAAGAGATGGAGTGGCTTGACAGGACTTGCCCGGTTTCTAGAACTCACTGTCTCTCTGTCTCTCTCTCTCTCTTTTTTTTTTTTTGCCAGTCGGATAGTGTTCC,0.693,0.724,0.897,0.137,–,–
GATGGACCCTATACGCGGCGCACACTCAGCATTCAGCCTTCATAGGGAACAAAGGTGAGGAGGAGATTAGCATGTTTAAGAAGGGAAACAAGGCCAGTGGGGCAGGTACATTGGGAGTTAGGGTGGCAATCATATGCAATTTGAGAGCTGGGCAGGAATTAGACTGCCAGAGTTTTGTAAGCCATGGTAAGGGGCTTAGGTTTTATTCTATGCCAGTCGGATAGTGTTCC,1.4,0.012,1.95,0.203,–,–
GATGGACCCTATACGCGGCAGAGAATAAACAAACCATGGTTCTGAAATTTGGTAATACACGTCTCTTTGTGAAACCCATGGATTCCCCACCCGAAGCACATGGGCAAGGCACACACAATTTTATGCACATTTCTTGGGGGCATGGACTTTATAAAGCCTATCCATGGACACCTAGGTTGAGAATCTGTGCTCTTCTGGGCCTTTAAAGGGTGCCAGTCGGATAGTGTTCC,1.7,0.585,1.26,0.293,–,–
GATGGACCCTATACGCGGCTGTCTTTTTGAACCCACCTTCCATTGGAGGCAAAATTAAACAGTCTGTGCACAGTCATAGGGACATGACATGCATGTGAAAGCGGCAAAGAGAGGGCAACATACTAACTAGCTCAGACCCAGAAATGGGTGCCCTTTGAAATGAGGCACTTCTGGGAGCTCCTACTGCATTTGAAGAAGAGGAGAAATCAATGCCAGTCGGATAGTGTTCC,2.01,0.412,0.87,0.0437,–,–
GATGGACCCTATACGCGGCCCTGCTCCTTCAATGGCCAGCCTAAGTATCTCCACCTCTAGGATGCCTCCCTGTCCTCCCAGTGCTCTCTGATGCCCCTCCCTCTGGGCTCCCAGAGCACCCTGGAATGTGTCTATGAGAGAATTTAGGGTCCAGAACTGTGATAAGGATGTAGCACAGTGGCAGTGAGCATAGGCGCTGCCAGTTACAGGTGCCAGTCGGATAGTGTTCC,2.17,0.0889,0.257,0.598,–,–
GATGGACCCTATACGCGGCGTAATAGGTAGCTCACTATTTGGCTGGGTAGGGTAAACCGCCTGGTCAAGCCTGTTCATACAGGCATGCCAACTGCATATGCACTGTAAAGACCTTCCCCTAAAGGCCTCTTCTCCAAGGTCCCTCAGCTGTGCTTAGGTCTCTCTTTAGCTTCAGGGTAGCTCTCCTGTATGTCTGAGCCTCAGATAAGCTGCCAGTCGGATAGTGTTCC,1.88,0.206,0.356,0.415,–,–
GATGGACCCTATACGCGGCCTTGGGTGTGGTTAGACAAGGCCTCATCATGCATGCCATGTGCCCGTGGCAGCCAGAGAAGCCCACAGGGATGGAGAAGCTTGCTGGCACATGGGTGTGTCTGCTGAGGTCCTAGGGTGGAGGGGAGGTGTGGCAATGCACAAGGTGCAGGCAGGAGACGATTCGAGTCACTCAGGCTCCCTGGTCCTTGCTGCCAGTCGGATAGTGTTCC,2.67,0.543,0.382,1.47,–,–
GATGGACCCTATACGCGGCCCTAAGCCATGCTCTTTGTTCCTTTACTTTTGCACATGCTGATTCTTCTGCCTAGACACTCCTCCCATCCACACCCCTCCCTAAATCCCCTTCATCTGCATGCACTCATGTACTCTTACATAACTTGCAATATGCTAGTCATCTTTCAATATCCAGCACAGCTGCTGCTGTTACCATTTCACTAAAGTCACTGCCAGTCGGATAGTGTTCC,0.373,0.353,1.03,0.677,–,–
GATGGACCCTATACGCGGCGTGTATGTATGTGTGGAGGTGCATGTGTGCACATGTGTGCGTATGTATTTGTTGGGGTGGGTGCATGTGTGCAAAAGTGTACATATGCATGTATGTGTATGTGTGTGGGTGCATTGTGCTTATGCATCTGTGTGTATATGTGAGTGCATGTGCACATGTGTTTGTGTATGTGTGGGTGCATGTGTGCATATTGCCAGTCGGATAGTGTTCC,1.82,0.746,0.125,2.43,–,–
GATGGACCCTATACGCGGCAGGTGAGCAATCACAGTATCTGTTTATAACTTCATATCACTGAAAGAGGAACTGAATAGGGTAGAAAAGACAATATTGAATTGCTGACACCACCCCTGCCCCATCTCCTGGCAGTGACCACGTGTCACAGAGAGAGAATCTGTGCACTTGGGTGAGGGAGAGTGCAGGGATTGCGGGAAATCAGTACTGCATGCCAGTCGGATAGTGTTCC,0.793,0.189,0.292,0.293,–,–
GATGGACCCTATACGCGGCTTCACTTCGTGTGTTAAAGTAATTCCAGAGAGAAAGGGACTAGACTAGGGAGACACCCAGCCCAGGCAGTGACTTGCAAATAATGGAAGTATGGCCACATCAGCCCCTAATTTACCTTTGATTGTCTCCCTATTTCTGACTCTCTCTCTTACCCACTTGATATATACAACCGTGTTTCTTTCCAATCCTGATGCCAGTCGGATAGTGTTCC,0.655,0.07,0.409,0.155,–,–
GATGGACCCTATACGCGGCAAAAGCTTGTAAAAGTTAGCATAAATCTTACAACCATAAACACTACTTTTTCCCCCACAGCAATGGTTGCCCCTCTCTTATTCTAATGATCTGTTCTGTGGTGTACTTACAGGAATGCCAAAAAGTGCATTTGGGTGGGGCTTTTCCATACCTTTCATAACTGTGGAGAACAATTAACAATGAGCTGAGTCTGCCAGTCGGATAGTGTTCC,1.85,0.526,2.1,–,-0.389,–
GATGGACCCTATACGCGGCGTGTGCATATGCCCGTGTGTATCCGTATGTGCGTGTTTGTGTGTGCATGTGCATGTGTGCATGCTTGTGCATCCGTGTGTGCATGTGCACGTGTCCATGCACATGTGGGTGGGTGTGCGTATATCTGTGTGCATGTGCATGTGTATCTGTATGTGTGTGCCCAAGTGCATGTATGTATGTGCGTGCGCATGTGCCAGTCGGATAGTGTTCC,0.78,0.461,–,1.14,–,-0.459
GATGGACCCTATACGCGGCCTCACACTGCTAATAAAGACACACCCCAGACTGGGTAATGTTTAAAGGAAAGAGGTCAAATGTACTCACAGTTCCACGTGGCTGGGGAGGACTCACAAGTGGTGGAAGGCAAAGGAGAAGCCAAGGCGTGTTGTACATGGCAGCAAGGCAATCATACAAGGGAACTTCCATTTATAAAACCATAAGATCTCTGCCAGTCGGATAGTGTTCC,2.25,0.0406,0.925,–,-0.0755,–
GATGGACCCTATACGCGGCCTGCACCTTTGCCAAAAATAGCCCATCTCCATGGCTGGTGGCCAGAGTGGAGCAGGCCCAACACTGAAACTCTTTTCAGACAAGTTGAGGCTGGTTTCCTGAACATAACCCGAAAGCAAATGTGGCTTGCCTTGGAGGTACAGATAAGCATATGCATAACAGATTTTATTACCTATGAGAAAGTACACACCTGCCAGTCGGATAGTGTTCC,2.18,1.02,0.378,0.719,–,–
GATGGACCCTATACGCGGCTTCCATTGCCACTCCTTCCTAGAGTAAAGGAACTGCTAATCCTCCCTCTGACTCATAACTAAAGCCAGCTTTCAAAGTGGTGAGGTTGCAGAGCTTGAGGGAGGGGCCTCATGGTCCCAAATACCTACTCCACTTGTTTGCTACTCCAAGGAATTTGTATACAGTCAGTTAATATTATTATCACTCACTCCTGCCAGTCGGATAGTGTTCC,2.19,0.00633,0.946,–,-0.235,–

# Pulled one by one from the list above:
Sequence,binding signal (log2 relative supershift) [1],binding signal (log2 relative supershift) [2],binding signal (log2 relative supershift) [3],binding signal (log2 relative supershift) [4],binding signal (log2 relative supershift) [5],binding signal (log2 relative supershift) [6]
GATGGACCCTATACGCGGCCTGTCCTGCCAATGAGAATATGATAAAAAGGTTCTTGAATGCTGCTGTAGTCAGTATACTTGGGGTCATGGAAGGCTGCTGACCTCATACATGGGGACTCTTGCAGAGAAGAGATGGAGTGGCTTGACAGGACTTGCCCGGTTTCTAGAACTCACTGTCTCTCTGTCTCTCTCTCTCTCTTTTTTTTTTTTTGCCAGTCGGATAGTGTTCC,0.693,0.724,0.897,0.137,–,–
GATGGACCCTATACGCGGCAGAGAATAAACAAACCATGGTTCTGAAATTTGGTAATACACGTCTCTTTGTGAAACCCATGGATTCCCCACCCGAAGCACATGGGCAAGGCACACACAATTTTATGCACATTTCTTGGGGGCATGGACTTTATAAAGCCTATCCATGGACACCTAGGTTGAGAATCTGTGCTCTTCTGGGCCTTTAAAGGGTGCCAGTCGGATAGTGTTCC,1.7,0.585,1.26,0.293,–,–

# — paper PMC12370185
